About 7,500 (2.1%) of roughly 360,000 compounds were called active. Inconclusive means that the source gave no clear call. Such entries were picked first, then a sample of the others. The call rests on the fitted dose curve; in most records, active means well fitted inhibition curve with a large enough effect; inconclusive means small, poorly fitted or top-dose-only effect, or effect the other way; inactive means flat fitted curve, though single readings scatter. Potencies beside an inconclusive call are fits to weak or partial responses and may not hold up.
Test: Nrf2 qHTS screen for inhibitors; further: nearly all actives have a fitted effect of over 60% in size
Details: A549 ARE-Fluc reporter, luciferase luminescence, 18-24 h; activity change, negative = inhibition: at 46 µM (top of the series)
Outline: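 Nrf2 activity is the BugLite luminescence, read 15 min after reagent at room temperature, following CellTiter-Fluor cytotoxicity readout (30 min, 37C). Compound titrations were applied for 18-24 h to 5000 A549 ARE_Fluc cells/well in 5% FBS OPTI-MEM.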
On the % scale 0 is the no-effect control and ±100 the full control effect; potency means the concentration at half of the fitted maximal effect.

SMILES	Potency	activity change, negative = inhibition
C[C@@H](NC(=O)Cn1cnc2c(OCc3ccccc3)ncnc21)c1cccc2ccccc12	inconclusive: 29.1 µM [falling, single point]	–
O=[N+]([O-])c1ccccc1NCCNS(=O)(=O)c1ccc(Cl)cc1	inconclusive: 32.6 µM [falling, single point]	–
O=[N+]([O-])c1c(Nc2ccccn2)cc(Cl)c2nonc12	inconclusive: 23.1 µM [falling, single point]	–
O=c1c2ccccc2cnn1CCOc1cccc(Br)c1	inconclusive: 11.6 µM [activator, partial curve]	–
Cc1ccc(N(CCC#N)C(=O)CCl)cc1C	–	inactive: -5.64%
COc1ccc(CC(CC(=O)O)C(=O)Nc2ccc(Cl)c(Cl)c2)cc1 (stereo unspecified)	inconclusive: 32.6 µM [falling, single point]	–
O=C(Nc1ccccn1)c1ccco1	inconclusive: 20.6 µM [activator, single point]	–
Cn1c(SCC(=O)Nc2nc(C(C)(C)C)cs2)nnc1C1CC1	inconclusive: 16.4 µM [falling, partial curve, poor fit]	–
CC(=O)/C=C(\C)Nc1ccc(-c2cnc(-c3ccccc3)o2)cc1	inconclusive: 16.4 µM [activator, partial curve]	–
O=C(Nc1ccc(F)cc1)c1cccc2c1C(=O)N(Cc1ccccn1)C2	inconclusive: 20.6 µM [falling, partial curve, poor fit]	–
Cc1ccc(S(=O)(=O)Nc2ccccc2N(C)S(=O)(=O)c2ccc(C)cc2)cc1	inconclusive: 29.1 µM [falling, single point]	–
Cc1ccccc1CSc1nc2[nH]ncc2c(=O)[nH]1	inconclusive: 16.4 µM [falling, partial curve, poor fit]	–
O=C(OCc1ccccc1)N1CCc2ccccc21	inconclusive: 8.2 µM [activator, partial curve]	–
CCn1cc(C(=O)OCC(=O)c2ccccc2)c(=O)c2ccc(C)nc21	–	inactive: -9.71%
Cc1cnc(C(=O)N2CCCC(C(=O)c3cccc(OC(C)C)c3)C2)cn1 (stereo unspecified)	inconclusive: 20.6 µM [falling, partial curve]	–
CN1CCC(=NOc2ccc([N+](=O)[O-])cc2)CC1	inconclusive: 2.91 µM [activator, full curve]	–
O=C(Cc1ccccc1)N/N=C/c1cc(Br)cc(Br)c1O	inconclusive: 29.1 µM [falling, single point]	–
C[C@@H]1CCC[C@]2(O[C@H](CCO)C[C@@H](O)[C@@H]2O)O1	inconclusive: 2.59 µM [falling, partial curve, poor fit]	–
O=C(NCCN1CCN(C(=O)c2cccs2)CC1)C(=O)Nc1ccc(Br)cc1	inconclusive: 18.4 µM [falling, single point]	–
Nc1ccc2c(c1)C(=Cc1cccnc1)c1ccccc1-2	–	inactive: 22.3%
COc1ccc(C2C(C(=O)c3ccccc3)=C(C)Nc3nc4ccccc4n32)c(OC)c1 (stereo unspecified)	–	inactive: 6.41%
Cc1nnc(SCC(=O)N2N=C(c3ccc(Cl)cc3)CC2c2ccco2)[nH]c1=O (stereo unspecified)	inconclusive: 3.26 µM [activator, full curve, poor fit]	–

SMILES	Potency	activity change, negative = inhibition
COc1ccc(CN2CCc3ccc(NC(=O)c4ccncc4)cc3C2)c(F)c1	inconclusive: 13 µM [falling, partial curve]	–
Cc1cc(C)cc(NC(=O)CSc2ccc(-c3cccs3)nn2)c1	active: 10.3 µM	–
CC(=O)N(C(C)=O)N1C(=O)C2C3c4ccccc4C(c4ccccc43)C2C1=O (stereo unspecified)	active: 9.2 µM	–
O=C(NCCCc1ccccc1)c1ccc(CS(=O)Cc2ccccc2Cl)o1 (stereo unspecified)	inconclusive: 5.8 µM [falling, partial curve, poor fit]	–
Cc1ccc(S(=O)(=O)N2CCCC(C(=O)NCCc3ccc4c(c3)OCO4)C2)cc1 (stereo unspecified)	inconclusive: 16.4 µM [falling, partial curve, poor fit]	–
CS(=O)(=O)N(CCc1ccccc1)CC(=O)N1CCN(c2ccc(F)cc2)CC1	inconclusive: 23.1 µM [falling, partial curve, poor fit]	–
Cc1ccc(Nc2nc(N)nc(CSc3nc4ccccc4s3)n2)cc1	inconclusive: 18.4 µM [falling, single point]	–
Cc1ccc(C(=O)N/N=C\c2ccc[nH]2)cc1[N+](=O)[O-]	inconclusive: 29.1 µM [falling, single point]	–
CCOC(=O)C1=NN(c2cccc(Cl)c2)C2=NC(C)=C(C(=O)OC)C(c3cccs3)N12 (stereo unspecified)	inconclusive: 2.91 µM [falling, partial curve, poor fit]	–
CCn1cc(C(=O)N2CCN(c3ccccc3)CC2)c(=O)c2cc(S(=O)(=O)N(C)C)ccc21	inconclusive: 6.51 µM [falling, single point]	–
O=C(NCCOc1ccccc1)C1Nc2ccc(C(F)(F)F)cc2C2c3ccccc3CC12 (stereo unspecified)	–	inactive: -25.4%
Cc1cccc(NC(=S)NCCSc2ccc(Cl)cc2)c1	inconclusive: 18.4 µM [falling, single point]	–
S=c1[nH]nc(Cc2cccc3ccccc23)o1	–	inactive: -8.61%
Cc1nc(CNS(=O)(=O)c2ccc(Oc3ccccc3)cc2)cs1	inconclusive: 13 µM [falling, partial curve, poor fit]	–
CS(=O)(=O)N1CCC2CC1c1cc(-c3ccccc3)ccc12 (stereo unspecified)	inconclusive: 29.1 µM [falling, single point]	–
Cc1cc(C(=O)CSc2nn3c(=O)c(C(C)(C)C)nnc3s2)c(C)n1C1CC1	inconclusive: 23.1 µM [activator, partial curve, poor fit]	–
O=C1CCC(C(=O)N2CCCO2)CN1Cc1cccc(C(F)(F)F)c1 (stereo unspecified)	inconclusive: 16.4 µM [activator, single point]	–
Fc1ccccc1CSc1ncnc2c1oc1ccccc12	inconclusive: 2.91 µM [falling, partial curve, poor fit]	–
O=C(CNC(=O)c1ccccc1)OCC(=O)c1cccc2ccccc12	–	inactive: 5.47%
CCOc1ccccc1N1CCN(C2=C(NS(=O)(=O)c3cccs3)C(=O)c3ccccc3C2=O)CC1	inconclusive: 18.4 µM [falling, partial curve, poor fit]	–
Cc1sc2nc(CN3CCOCC3)nc(Oc3ccc(NC(=O)c4ccco4)cc3)c2c1C	inconclusive: 18.4 µM [falling, single point]	–
CCc1ccc(NC(=O)Cn2c(=O)n(-c3ccccc3C)c(=O)c3c2c2cc(OC)ccc2n3C)cc1	inconclusive: 18.4 µM [activator, single point]	–

SMILES	Potency	activity change, negative = inhibition
CCC(C)(C)n1nnnc1C(c1ccc2ncccc2c1)N1CCN(c2nc3ccccc3s2)CC1 (stereo unspecified)	inconclusive: 14.6 µM [falling, partial curve, poor fit]	–
O=C(NNC(=O)c1cccs1)c1ccc(Cl)cc1	inconclusive: 29.1 µM [activator, single point]	–
CCCC(=O)Nc1ccc(-c2cn3cccnc3n2)cc1	–	inactive: -8.63%
CCn1nnc(NC(=O)c2ccc(C(C)(C)C)cc2)n1	inconclusive: 2.91 µM [activator, full curve]	–
N#Cc1ccsc1NC(=O)COC(=O)CCCSc1nc2ccccc2s1	inconclusive: 29.1 µM [falling, single point]	–
Cc1cc(C(=O)NNS(=O)(=O)c2ccc(C(C)(C)C)cc2)nn1C(C)(C)C	–	inactive: -0.845%
Clc1cccc(CN2CCN(c3ncccn3)CC2)c1Cl	inconclusive: 14.6 µM [falling, partial curve, poor fit]	–
CC(C)C(=O)Nc1ccc([N+](=O)[O-])cc1Br	–	inactive: -3.31%
Cc1ccc(-c2ccc(/C=C3\SC(N4CCOCC4)=NC3=O)o2)cc1	–	inactive: -25.3%
COc1ccc(COCC(O)CN2CCN(S(=O)(=O)c3ccc(C(C)C)cc3)CC2)cc1 (stereo unspecified)	inconclusive: 23.1 µM [falling, single point]	–
Cc1sc2ncnc(N3CCC(C(=O)N(C)CC(=O)Nc4ccccc4Br)CC3)c2c1C	inconclusive: 14.6 µM [falling, single point]	–
CN(C)S(=O)(=O)c1ccc(C(=O)Nc2nc3ccccc3[nH]2)cc1	inconclusive: 3.66 µM [activator, full curve]	–
O=C(O)CSc1nc(-c2ccc(Cl)cc2)nc2c1oc1ccccc12	inconclusive: 11.6 µM [falling, partial curve, poor fit]	–
O=C1Nc2cc(C(F)(F)F)ccc2N2CCCCC12 (stereo unspecified)	inconclusive: 23.1 µM [falling, partial curve, poor fit]	–
O=C(COC(=O)c1ccc2ncsc2c1)Nc1ccc(OC(F)(F)F)cc1	inconclusive: 16.4 µM [activator, partial curve, poor fit]	–
O=C(NCCO)c1ccc2c3n(nc2c1)-c1ccc(Cl)cc1CO3	–	inactive: 11.7%
Cc1ccc2c(C)c(C(=O)N(Cc3ccc(N(C)C)cc3)Cc3ccco3)oc2c1C	–	inactive: -19.7%
CCn1c(=O)c2sccc2n2c(CCC(=O)Nc3ccc(F)cc3)nnc12	inconclusive: 32.6 µM [falling, single point]	–
Cc1ccc(C)c(N2CCN(C(=O)c3ccc(Cn4c(=O)[nH]c5ccccc5c4=O)cc3)CC2)c1	active: 7.31 µM	–
Fc1ccc(-n2cc(-c3ccccc3)c3c(=S)nc[nH]c32)cc1	inconclusive: 32.6 µM [falling, single point]	–
Cn1c(=O)c2ncn(CC(=O)N/N=C/c3ccco3)c2n(C)c1=O	inconclusive: 25.9 µM [activator, single point]	–
CCN(c1ccccc1)S(=O)(=O)c1nnc(NC(=O)C2CCCCC2)s1	inconclusive: 6.51 µM [falling, single point]	–

Source: PubChem BioAssay AID504444 (National Center for Advancing Translational Sciences (NCATS), 2011)
